# Source: the supplement of paper PMC10032668
# Chains of the proteins cited; added tags and fusions are not shown.
# CCNT1, O60563, UniProt O60563, whole entry: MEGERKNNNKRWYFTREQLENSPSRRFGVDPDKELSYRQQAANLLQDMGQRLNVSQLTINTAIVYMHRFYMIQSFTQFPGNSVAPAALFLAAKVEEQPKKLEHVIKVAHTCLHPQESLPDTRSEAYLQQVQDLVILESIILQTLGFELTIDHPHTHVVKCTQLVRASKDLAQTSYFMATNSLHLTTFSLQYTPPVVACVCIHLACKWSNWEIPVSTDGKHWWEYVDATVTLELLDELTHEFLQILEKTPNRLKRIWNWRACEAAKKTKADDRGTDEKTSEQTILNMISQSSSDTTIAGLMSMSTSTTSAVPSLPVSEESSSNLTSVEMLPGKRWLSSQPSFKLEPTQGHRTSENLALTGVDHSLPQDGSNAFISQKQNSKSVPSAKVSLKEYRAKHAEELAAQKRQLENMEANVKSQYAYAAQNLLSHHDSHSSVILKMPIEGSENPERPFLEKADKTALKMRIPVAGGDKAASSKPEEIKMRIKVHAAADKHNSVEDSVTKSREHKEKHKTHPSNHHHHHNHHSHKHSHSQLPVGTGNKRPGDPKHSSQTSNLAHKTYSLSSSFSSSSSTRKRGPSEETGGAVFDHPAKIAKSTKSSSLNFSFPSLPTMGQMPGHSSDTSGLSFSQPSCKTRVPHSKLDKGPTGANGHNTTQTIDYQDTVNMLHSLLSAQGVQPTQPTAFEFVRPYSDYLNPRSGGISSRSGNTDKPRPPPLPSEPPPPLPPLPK
# CLPX, O76031, UniProt O76031, whole entry: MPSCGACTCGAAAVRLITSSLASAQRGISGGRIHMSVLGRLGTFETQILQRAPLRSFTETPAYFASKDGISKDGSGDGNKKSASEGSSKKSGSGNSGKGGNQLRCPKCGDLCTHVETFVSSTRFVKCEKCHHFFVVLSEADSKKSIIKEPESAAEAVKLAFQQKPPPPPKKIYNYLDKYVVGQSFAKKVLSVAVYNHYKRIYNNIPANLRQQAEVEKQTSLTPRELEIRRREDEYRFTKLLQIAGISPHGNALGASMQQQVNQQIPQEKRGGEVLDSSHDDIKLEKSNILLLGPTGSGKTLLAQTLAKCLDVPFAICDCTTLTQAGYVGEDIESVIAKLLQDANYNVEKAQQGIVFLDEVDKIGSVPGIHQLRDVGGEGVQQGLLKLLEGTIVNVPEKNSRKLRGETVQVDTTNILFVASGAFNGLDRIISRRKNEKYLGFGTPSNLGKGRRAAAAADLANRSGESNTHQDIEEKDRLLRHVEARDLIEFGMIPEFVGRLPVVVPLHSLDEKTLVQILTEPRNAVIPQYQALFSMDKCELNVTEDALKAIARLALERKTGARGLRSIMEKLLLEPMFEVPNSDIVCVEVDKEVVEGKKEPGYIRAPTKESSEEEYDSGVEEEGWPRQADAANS
# CNOT8, Q9UFF9, UniProt Q9UFF9, whole entry: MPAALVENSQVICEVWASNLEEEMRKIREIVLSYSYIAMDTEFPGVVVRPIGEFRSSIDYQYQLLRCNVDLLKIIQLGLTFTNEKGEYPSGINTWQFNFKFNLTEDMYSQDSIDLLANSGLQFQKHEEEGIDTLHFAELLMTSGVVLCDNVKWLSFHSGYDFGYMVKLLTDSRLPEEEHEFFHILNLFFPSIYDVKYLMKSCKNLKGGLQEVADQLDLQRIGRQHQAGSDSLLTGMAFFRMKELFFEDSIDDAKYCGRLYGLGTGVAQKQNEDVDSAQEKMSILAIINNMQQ
# COA4, Q9NYJ1, UniProt Q9NYJ1, whole entry: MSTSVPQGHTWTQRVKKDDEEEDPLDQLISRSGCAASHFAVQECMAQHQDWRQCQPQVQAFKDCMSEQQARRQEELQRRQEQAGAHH
# KMT2A, Q03164, UniProt Q03164, whole entry: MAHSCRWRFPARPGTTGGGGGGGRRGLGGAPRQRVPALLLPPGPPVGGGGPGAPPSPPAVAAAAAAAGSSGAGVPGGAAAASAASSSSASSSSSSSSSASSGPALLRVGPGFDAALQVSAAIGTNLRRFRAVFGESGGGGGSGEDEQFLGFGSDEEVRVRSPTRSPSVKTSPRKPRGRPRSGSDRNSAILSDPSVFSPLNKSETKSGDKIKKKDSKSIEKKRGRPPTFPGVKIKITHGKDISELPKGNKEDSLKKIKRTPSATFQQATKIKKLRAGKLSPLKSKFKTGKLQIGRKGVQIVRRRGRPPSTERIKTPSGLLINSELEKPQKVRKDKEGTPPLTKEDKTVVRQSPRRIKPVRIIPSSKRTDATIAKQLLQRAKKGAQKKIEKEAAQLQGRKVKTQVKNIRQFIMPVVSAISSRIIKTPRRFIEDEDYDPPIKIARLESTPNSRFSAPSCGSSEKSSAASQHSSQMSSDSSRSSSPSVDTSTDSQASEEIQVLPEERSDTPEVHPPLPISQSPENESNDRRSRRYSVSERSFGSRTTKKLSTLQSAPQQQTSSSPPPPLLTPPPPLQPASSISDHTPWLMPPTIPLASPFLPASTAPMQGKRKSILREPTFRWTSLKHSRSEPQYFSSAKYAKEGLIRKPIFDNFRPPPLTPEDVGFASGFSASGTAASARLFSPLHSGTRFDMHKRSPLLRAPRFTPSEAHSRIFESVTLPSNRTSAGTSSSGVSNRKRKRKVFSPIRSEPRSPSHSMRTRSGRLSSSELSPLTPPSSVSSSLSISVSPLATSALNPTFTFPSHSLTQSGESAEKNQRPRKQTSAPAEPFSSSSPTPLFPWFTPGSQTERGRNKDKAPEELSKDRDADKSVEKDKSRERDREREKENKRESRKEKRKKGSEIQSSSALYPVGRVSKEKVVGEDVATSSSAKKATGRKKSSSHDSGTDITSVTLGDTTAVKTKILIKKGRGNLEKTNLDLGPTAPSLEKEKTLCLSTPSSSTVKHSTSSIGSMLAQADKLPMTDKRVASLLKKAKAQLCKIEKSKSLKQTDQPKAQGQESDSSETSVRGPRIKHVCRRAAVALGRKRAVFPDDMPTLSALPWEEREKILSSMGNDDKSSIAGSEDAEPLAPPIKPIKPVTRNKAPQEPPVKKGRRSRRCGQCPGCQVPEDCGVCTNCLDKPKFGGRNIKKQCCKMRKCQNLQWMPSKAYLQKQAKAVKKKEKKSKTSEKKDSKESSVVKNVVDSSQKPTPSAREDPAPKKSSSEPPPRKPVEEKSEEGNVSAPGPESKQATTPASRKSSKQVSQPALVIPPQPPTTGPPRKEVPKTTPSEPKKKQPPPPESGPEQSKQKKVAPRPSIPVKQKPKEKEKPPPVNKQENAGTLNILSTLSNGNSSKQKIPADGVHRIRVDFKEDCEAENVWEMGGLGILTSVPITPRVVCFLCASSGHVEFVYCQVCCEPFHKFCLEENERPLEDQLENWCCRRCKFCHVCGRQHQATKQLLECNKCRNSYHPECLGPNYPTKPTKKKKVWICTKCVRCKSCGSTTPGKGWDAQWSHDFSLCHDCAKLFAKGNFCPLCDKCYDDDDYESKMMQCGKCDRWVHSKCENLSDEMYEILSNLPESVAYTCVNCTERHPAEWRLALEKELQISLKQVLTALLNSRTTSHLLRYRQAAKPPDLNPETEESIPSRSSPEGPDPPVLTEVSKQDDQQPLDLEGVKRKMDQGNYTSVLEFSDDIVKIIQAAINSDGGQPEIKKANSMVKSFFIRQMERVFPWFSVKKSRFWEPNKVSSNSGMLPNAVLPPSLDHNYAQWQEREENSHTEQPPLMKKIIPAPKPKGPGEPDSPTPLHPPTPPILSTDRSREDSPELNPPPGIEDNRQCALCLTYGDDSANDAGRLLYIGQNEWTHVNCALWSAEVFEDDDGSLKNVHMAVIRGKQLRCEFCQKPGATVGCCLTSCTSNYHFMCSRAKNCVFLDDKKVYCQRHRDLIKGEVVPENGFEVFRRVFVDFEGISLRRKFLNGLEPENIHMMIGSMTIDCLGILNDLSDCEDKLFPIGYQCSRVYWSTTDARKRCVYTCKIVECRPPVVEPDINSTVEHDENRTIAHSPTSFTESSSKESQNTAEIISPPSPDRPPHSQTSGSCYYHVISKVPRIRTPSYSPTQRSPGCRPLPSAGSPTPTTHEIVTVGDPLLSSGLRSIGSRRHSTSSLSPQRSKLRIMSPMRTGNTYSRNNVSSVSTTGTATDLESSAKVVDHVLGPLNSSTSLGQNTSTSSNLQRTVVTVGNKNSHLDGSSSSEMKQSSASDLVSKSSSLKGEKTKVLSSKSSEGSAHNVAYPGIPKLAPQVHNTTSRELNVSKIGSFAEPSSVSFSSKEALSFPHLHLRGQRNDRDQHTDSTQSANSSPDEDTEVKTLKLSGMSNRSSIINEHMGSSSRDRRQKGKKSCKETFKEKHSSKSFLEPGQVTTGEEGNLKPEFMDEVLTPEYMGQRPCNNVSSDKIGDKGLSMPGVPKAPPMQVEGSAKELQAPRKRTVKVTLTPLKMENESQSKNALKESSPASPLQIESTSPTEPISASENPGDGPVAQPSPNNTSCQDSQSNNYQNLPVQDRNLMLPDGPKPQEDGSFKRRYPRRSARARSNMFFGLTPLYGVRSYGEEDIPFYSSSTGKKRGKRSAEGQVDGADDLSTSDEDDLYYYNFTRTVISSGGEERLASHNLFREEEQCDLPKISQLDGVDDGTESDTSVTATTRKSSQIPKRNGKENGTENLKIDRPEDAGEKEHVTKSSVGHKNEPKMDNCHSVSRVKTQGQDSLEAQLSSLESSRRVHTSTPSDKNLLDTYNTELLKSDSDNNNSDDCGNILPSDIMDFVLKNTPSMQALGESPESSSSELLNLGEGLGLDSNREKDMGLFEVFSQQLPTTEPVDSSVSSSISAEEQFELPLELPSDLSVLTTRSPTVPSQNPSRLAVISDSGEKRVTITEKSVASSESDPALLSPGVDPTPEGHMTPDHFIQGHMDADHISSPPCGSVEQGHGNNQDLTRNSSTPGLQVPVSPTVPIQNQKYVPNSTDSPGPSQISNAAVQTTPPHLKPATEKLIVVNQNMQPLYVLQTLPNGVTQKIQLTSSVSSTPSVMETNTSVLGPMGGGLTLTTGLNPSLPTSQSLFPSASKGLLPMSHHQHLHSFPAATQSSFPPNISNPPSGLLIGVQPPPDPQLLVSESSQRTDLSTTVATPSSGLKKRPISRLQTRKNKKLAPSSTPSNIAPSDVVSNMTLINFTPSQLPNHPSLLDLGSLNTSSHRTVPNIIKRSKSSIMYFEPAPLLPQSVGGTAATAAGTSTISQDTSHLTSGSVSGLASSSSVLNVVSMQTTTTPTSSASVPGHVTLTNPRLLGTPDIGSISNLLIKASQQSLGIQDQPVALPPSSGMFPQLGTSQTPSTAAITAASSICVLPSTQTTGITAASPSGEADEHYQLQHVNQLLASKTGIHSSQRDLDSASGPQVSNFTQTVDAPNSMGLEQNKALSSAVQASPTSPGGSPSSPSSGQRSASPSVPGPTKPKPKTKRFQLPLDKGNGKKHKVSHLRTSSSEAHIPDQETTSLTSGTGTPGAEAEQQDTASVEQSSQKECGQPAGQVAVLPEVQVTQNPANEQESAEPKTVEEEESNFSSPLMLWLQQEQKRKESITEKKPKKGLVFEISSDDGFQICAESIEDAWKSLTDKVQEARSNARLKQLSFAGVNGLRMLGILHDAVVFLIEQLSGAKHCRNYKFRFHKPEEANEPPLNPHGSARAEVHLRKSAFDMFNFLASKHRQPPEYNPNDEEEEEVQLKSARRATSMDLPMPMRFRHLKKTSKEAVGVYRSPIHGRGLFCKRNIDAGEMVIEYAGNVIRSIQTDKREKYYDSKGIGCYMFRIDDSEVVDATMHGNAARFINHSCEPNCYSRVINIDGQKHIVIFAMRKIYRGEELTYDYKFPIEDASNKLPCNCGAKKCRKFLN
# LARP4, Q71RC2, UniProt Q71RC2, whole entry: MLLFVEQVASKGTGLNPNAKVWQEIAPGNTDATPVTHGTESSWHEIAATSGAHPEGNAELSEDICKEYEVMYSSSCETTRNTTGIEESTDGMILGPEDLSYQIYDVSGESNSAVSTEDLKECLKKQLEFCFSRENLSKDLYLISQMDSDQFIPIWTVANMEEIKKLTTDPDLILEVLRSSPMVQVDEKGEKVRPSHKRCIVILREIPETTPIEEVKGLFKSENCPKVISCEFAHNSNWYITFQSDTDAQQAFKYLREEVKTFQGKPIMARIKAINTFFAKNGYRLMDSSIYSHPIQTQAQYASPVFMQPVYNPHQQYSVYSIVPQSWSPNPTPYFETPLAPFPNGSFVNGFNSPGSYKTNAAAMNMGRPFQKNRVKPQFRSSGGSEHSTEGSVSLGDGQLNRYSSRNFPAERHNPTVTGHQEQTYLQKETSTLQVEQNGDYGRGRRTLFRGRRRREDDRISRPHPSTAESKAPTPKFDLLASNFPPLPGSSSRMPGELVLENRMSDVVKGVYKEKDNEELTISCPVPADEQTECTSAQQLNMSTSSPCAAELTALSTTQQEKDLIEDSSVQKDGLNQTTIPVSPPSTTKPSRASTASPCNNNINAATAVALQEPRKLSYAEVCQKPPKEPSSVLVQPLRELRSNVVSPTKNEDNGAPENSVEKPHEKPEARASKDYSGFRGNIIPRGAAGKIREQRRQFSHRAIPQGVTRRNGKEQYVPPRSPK
# This is one part of the list. The list holds hits alone, and they repeat only in part.
# What was measured:
# Assay in all cases: PRISMA enrichment of interactor (LFQ) in peptide spot vs all other peptide spots (log2 fold change); higher = stronger / more specific binding of the interactor to the peptide
# [1] = target: AAR2, Q9Y312
# Experimental: (§1)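 PRISMA: 15-aa overlapping tiles (offset 8 aa) of 60 microproteins, plus SOS1/GLUT1 control peptides, were spot-synthesized on cellulose membranes in triplicate. Membranes were incubated with benzonase-treated HEK293T lysate, and bound proteins were identified by LC-MS/MS with LFQ. Enrichment is the log2 fold change of each protein in one spot versus all other spots. Only interactors passing the significance cutoff are listed.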
# [2] = target: ABCF1, Q8NE71
# Experimental: as §1
# [3] = target: ALDH3A2, P51648
# Experimental: as §1
# [4] = target: AP2A1, O95782
# Experimental: as §1
# [5] = target: CBLL1, Q75N03
# Experimental: as §1
# [6] = target: CCNT1, O60563
# Experimental: as §1
# [7] = target: CEP290, O15078
# Experimental: as §1
# [8] = target: CHEK1, O14757
# Experimental: as §1
# [9] = target: CLPX, O76031
# Experimental: as §1
# [10] = target: CNOT8, Q9UFF9
# Experimental: as §1
# [11] = target: COA4, Q9NYJ1
# Experimental: as §1
# [12] = target: COA6, Q5JTJ3
# Experimental: as §1
# [13] = target: COL4A3BP, Q9Y5P4
# Experimental: as §1
# [14] = target: CWC22, Q9HCG8
# Experimental: as §1
# [15] = target: DCTPP1, Q9H773
# Experimental: as §1
# [16] = target: DDX52, Q9Y2R4
# Experimental: as §1
# [17] = target: DHRS7B, Q6IAN0
# Experimental: as §1
# [18] = target: DHX37, Q8IY37
# Experimental: as §1
# [19] = target: ESF1, Q9H501
# Experimental: as §1
# [20] = target: FASTKD5, Q7L8L6
# Experimental: as §1
# [21] = target: FLNB, O75369
# Experimental: as §1
# [22] = target: HNRNPAB, Q99729
# Experimental: as §1
# [23] = target: IGF2BP2, Q9Y6M1
# Experimental: as §1
# [24] = target: JAGN1, Q8N5M9
# Experimental: as §1
# [25] = target: KMT2A, Q03164
# Experimental: as §1
# [26] = target: KRI1, Q8N9T8
# Experimental: as §1
# [27] = target: LARP4, Q71RC2
# Experimental: as §1
# [28] = target: MAIP1, Q8WWC4
# Experimental: as §1
# [29] = target: MARCKS, P29966
# Experimental: as §1
# [30] = target: MRPS15, P82914
# Experimental: as §1
# [31] = target: NDUFA10, O95299
# Experimental: as §1
binder,measurement,setting,value
RSTSMPSMAGTGHPL [RP11-140K17.3_2],PRISMA enrichment of interactor (log2),[1],4.15
same,PRISMA enrichment of interactor (log2),[2],5.57
same,PRISMA enrichment of interactor (log2),[3],4.52
same,PRISMA enrichment of interactor (log2),[4],5.32
same,PRISMA enrichment of interactor (log2),[5],5.1
same,PRISMA enrichment of interactor (log2),[6],4.41
same,PRISMA enrichment of interactor (log2),[7],5.23
same,PRISMA enrichment of interactor (log2),[8],5.38
same,PRISMA enrichment of interactor (log2),[9],5.84
same,PRISMA enrichment of interactor (log2),[10],3.88
same,PRISMA enrichment of interactor (log2),[11],4.63
same,PRISMA enrichment of interactor (log2),[12],4.17
same,PRISMA enrichment of interactor (log2),[13],5.3
same,PRISMA enrichment of interactor (log2),[14],5.88
same,PRISMA enrichment of interactor (log2),[15],4.29
same,PRISMA enrichment of interactor (log2),[16],5.25
same,PRISMA enrichment of interactor (log2),[17],5.12
same,PRISMA enrichment of interactor (log2),[18],5.6
same,PRISMA enrichment of interactor (log2),[19],4.48
same,PRISMA enrichment of interactor (log2),[20],4.09
same,PRISMA enrichment of interactor (log2),[21],4.76
same,PRISMA enrichment of interactor (log2),[22],7.65
same,PRISMA enrichment of interactor (log2),[23],4.55
same,PRISMA enrichment of interactor (log2),[24],7.87
same,PRISMA enrichment of interactor (log2),[25],3.85
same,PRISMA enrichment of interactor (log2),[26],4.78
same,PRISMA enrichment of interactor (log2),[27],5.31
same,PRISMA enrichment of interactor (log2),[28],4.73
same,PRISMA enrichment of interactor (log2),[29],4.34
same,PRISMA enrichment of interactor (log2),[30],7.94
same,PRISMA enrichment of interactor (log2),[31],4.81

# A stretch taken from the entries so far, for reference:
binder,measurement,setting,value
RSTSMPSMAGTGHPL [RP11-140K17.3_2],PRISMA enrichment of interactor (log2),[9],5.84
same,PRISMA enrichment of interactor (log2),[10],3.88
